The results in this text go back to paper PMC5187391, “Structural mechanism for the arginine sensing and regulation of CASTOR1 in the mTORC1 signaling pathway” (Cell Discovery, 2016).

Assay [1] addresses Human CASTOR1 L22R mutant (human) (UniProt Q8WTX7). As to the kind of experiment: SEC-MALS; 25 °C; about 400 μg protein injected per run; 15 mM Tris-HCl, pH 8.0, 150 mM NaCl, 2 mM DTT; WTC-015S5 column; both purified. (In general: In gel filtration, larger molecules generally elute earlier.)
In assay [2] the target is Human CASTOR1 I202D mutant (human) (UniProt Q8WTX7). Described as above.

Numbering of substitutions follows the chain as printed. Names and notes keep the numbering of the source. Results are given in words; binding and its absence hold for the method and conditions named.

B1: Human CASTOR1 L22R mutant (protein, UniProt Q8WTX7 1-329)
chain: MELHILEHRVRVLSVARPGLWRYTHPLIKLLFLPRRSRCKFFSLTETPEDYTLMVDEEGFKELPPSEFLQVAEATWLVLNVSSHSGAAVQAAGVTKIARSVIAPLAEHHVSVLMLSTYQTDFILVREQDLSVVIHTLAQEFDIYREVGGEPVPVTRDDSSNGFPRTQHGPSPTVHPIQSPQNRFCVLTLDPETLPAIATTLIDVLFYSHSTPKEAASSSPEPSSITFFAFSLIEGYISIVMDAETQKKFPSDLLLTSSSGELWRMVRIGGQPLGFDECGIVAQIAGPLAAADISAYYISTFNFDHALVPEDGIGSVIEVLQRRQEGLAS
Turning to B1, the binding result in assay [1] is listed as “no binding”.

B2: Human CASTOR1 I202D mutant (protein, UniProt Q8WTX7 1-329)
chain: B1 chain with R22L, I202D
With B2, in assay [2], the binding entry is “no binding”.
